Assay results: US20260102485A1 (CEDARS SINAI MEDICAL CENTER, published 2026)
Results are given in words; binding and its absence hold for the method and conditions named. Some binding calls cover weakened binding; strength is not graded here.

What was measured:
[1] = biological target: T1, human TL1A (hTL1A) antigen (human, UniProt O95150 58-251, limits assumed); assay: MSD electrochemiluminescence plate assay, antibody titrated on coated human TL1A (positive control)
T1 sequence (looked up): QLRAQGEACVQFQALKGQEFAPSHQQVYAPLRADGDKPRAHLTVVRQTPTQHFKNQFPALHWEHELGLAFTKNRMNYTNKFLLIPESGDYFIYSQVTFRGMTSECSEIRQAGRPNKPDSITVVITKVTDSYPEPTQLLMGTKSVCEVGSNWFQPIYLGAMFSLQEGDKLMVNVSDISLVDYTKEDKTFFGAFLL

murine TL1A [2] = biological target: T2, murine TL1A (murine, UniProt Q5UBV8 94-252, limits assumed); assay: MSD electrochemiluminescence plate assay, antibody titrated on plates coated with murine TL1A
T2 sequence (looked up): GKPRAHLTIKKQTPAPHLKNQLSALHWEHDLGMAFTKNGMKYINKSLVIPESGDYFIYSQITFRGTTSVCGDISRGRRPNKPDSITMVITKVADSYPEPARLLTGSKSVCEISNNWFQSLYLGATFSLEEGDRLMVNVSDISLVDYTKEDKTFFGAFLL
Protocol: Anti-human TL1A monoclonal antibodies 9E12E5 and 5C3D11 neutralize the activity of human TL1A in vitro. […] MSD plates were coated with murine TL1A and incubated with various concentrations of 5C3D11 or 9E12E5 to evaluate the ability of the antibody to recognize murine TL1A, as shown in FIG. 6. Human TL1A was included as a positive control. 5C3D11 recognizes murine TL1A in a concentration dependent manner. The binding profile of both the 5C3D11 and 9E12E5 antibodies were assessed using a TL1A transfected HEK293 cell line and compared to the untransfected parental HEK293 cell line. Fluorescent staining of the anti-TL1A antibodies in TL1A expressing HEK293 cells is compared to the untransfected parental HEK293 cells, as shown in FIG. 7.

[3] = biological target: T1, human TL1A (hTL1A) antigen; assay: summary statement (soluble TL1A)
murine TL1A [4] = biological target: T2, murine TL1A; assay: MSD plates coated with murine TL1A

Measured: binding

B1: 5C3D11 (antibody, V domains shown)
VH: EVQLQQSGAELVKPGASVKLSCTASGFDIQDTYMHWVKQRPEQGLEWIGRIDPASGHTKYDPKFQVKATITTDTSSNTAYLQLSSLTSEDTAVYYCSRSGGLPDVWGAGTTVTVSS
VL: QIVLSQSPAILSASPGEKVTMTCRASSSVSYMYWYQQKPGSSPKPWIYATSNLASGVPDRFSGSGSGTSYSLTISRVEAEDAATYYCQQWSGNPRTFGGGTKLEIK
notes: Mouse hybridoma monoclonal antibody; also called 684842-3; anti-TL1A antibody 5C3D11
binds: all assays above

B2: 9E12E5 (antibody, V domains shown)
VH: QVHLQQSGPELVKPGASVKLSCKASGYTFTKYDINWVRQRPEQGLEWIGWIFPGDGRTDYNEKFKGKATLTTDKSSSTAYMEVSRLTSEDSAVYFCARYGPAMDYWGQGTSVTVAS
VL: DVLMTQTPLSLPVSLGDQASISCRSSQTIVHSNGDTYLDWFLQKPGQSPKLLIYKVSNRFSGVPDRFSGSGSGTDFTLKISRVEAEDLGVYYCFQGSHVPYTFGGGTKLEIK
notes: Mouse hybridoma monoclonal antibody; also called 684842-6; anti-TL1A antibody 9E12E5
binds: [1] | [3]
